Taken from: PubChem BioAssay AID504784 (Drosophila RNAi Screening Center, 2011)
The screen tested about 17,000 reagents; this is an unselected part of those with a known target gene and a result. 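Each column is one replicate's B-score; the combined score over replicates was not deposited, so single values may mislead.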 Names joined by + are all predicted targets of the reagent. No sequences are given here.

- Aim: 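Genome-wide knock-down for genes giving too much or too little stored lipid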 (primary screen)
- System: Drosophila Kc167 embryonic cells
- Knock-down reagent: long dsRNA against Drosophila genes, about 250 ng dsRNA per well
- Timing: 4 days
- Challenge: cells fed 400 µM oleic acid bound to BSA
- Measurement: 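Microscope images give a droplet-to-nucleus area ratio, taken as log and converted to a screen-wide B-score; higher values mean greater lipid storage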
- Reading the numbers: droplet/nuclear area B-score: higher = more stored lipid (overstorage)

Gene	dsRNA	droplet/nuclear area B-score, replicate 1	droplet/nuclear area B-score, replicate 2	droplet/nuclear area B-score, replicate 3
CG17660	DRSC00513	-0.914	0.354	
CG42518 + MED9	DRSC06917	-0.495	2.53	
CG18234	DRSC10309	-0.00718	0.999	
CG4653	DRSC19909	-0.00988	-1.01	5.88
CG4653	DRSC22857	-0.947	-1.07	
SKIP (Shal K[+] channel interacting protein)	DRSC14713	-1.2	-0.703	
SKIP (Shal K[+] channel interacting protein)	DRSC14714	2.39	0.654	
SKIP (Shal K[+] channel interacting protein)	DRSC15864	-0.0296	-1.51	
SKIP (Shal K[+] channel interacting protein)	DRSC16195	-0.00474	3.32	-0.926
SKIP (Shal K[+] channel interacting protein)	DRSC16196	-0.264	-0.105	-0.728
SMC6 (Structural maintenance of chromosomes 6)	DRSC15829	-0.114	0.429	
CG17803	DRSC15275	1.13	0.603	-0.194
CG17803	DRSC22811	1.72	-0.355	
CG3306	DRSC10357	0.912	-0.474	
Tim17a2	DRSC12252	1.14	2.56	
CG15027	DRSC19608	-0.607	0.182	
Tasp1 (Taspase 1)	DRSC10495	0.206	0.64	-0.35
dhd (deadhead)	DRSC18761	0.674	-1.94	0.136
CG12376	DRSC06144	0.627	0.509	
CG11858	DRSC14412	-1.76	-0.461	-1.06
pot (papillote)	DRSC19850	0.00985	1.99	0.0368

Records above whose gene name begins with S or s:
Gene	dsRNA	droplet/nuclear area B-score, replicate 1	droplet/nuclear area B-score, replicate 2	droplet/nuclear area B-score, replicate 3
SKIP (Shal K[+] channel interacting protein)	DRSC14713	-1.2	-0.703	
SKIP (Shal K[+] channel interacting protein)	DRSC14714	2.39	0.654	
SKIP (Shal K[+] channel interacting protein)	DRSC15864	-0.0296	-1.51	
SKIP (Shal K[+] channel interacting protein)	DRSC16195	-0.00474	3.32	-0.926
SKIP (Shal K[+] channel interacting protein)	DRSC16196	-0.264	-0.105	-0.728
SMC6 (Structural maintenance of chromosomes 6)	DRSC15829	-0.114	0.429	

Continued.
Gene	dsRNA	droplet/nuclear area B-score, replicate 1	droplet/nuclear area B-score, replicate 2	droplet/nuclear area B-score, replicate 3
CG6073	DRSC15962	1.62	1.33	0.0542
CG6073	DRSC22742	0.0303	0.189	
mip130 (Myb-interacting protein 130)	DRSC18575	-1.61	1.13	
CG42795	DRSC12772	1.05	0.0755	
CG42795	DRSC15533	-0.37	-0.742	
CG13712	DRSC08321	0.955	3.32	
Aldh-III (Aldehyde dehydrogenase type III)	DRSC06047	-0.0518	1.34	
Sara (Smad anchor for receptor activation)	DRSC04653	0.166	-0.966	
yellow-g2	DRSC08338	0.196	-1.27	
Jon44E (Jonah 44E)	DRSC07216	-0.861	0.36	
Pstk + Tim9b	DRSC19504	1.53	-0.241	
Pstk + Tim9b	DRSC20292	0.717	1.58	
Vha16-3 (Vacuolar H[+] ATPase 16kD subunit 3)	DRSC10872	0.451	0.263	
